# Source: PubChem BioAssay AID1347426 (Functional Genomics Laboratory (NCATS/FGL), 2020)
# Among all 31,000 sequences or so, about 1,400 (4.5%) were called active.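 The calls were made as follows: active = median seed-adjusted z-score above 1 or below -1; inactive = the rest.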 The list shows a part of the results.
# Assay: Novel Modifiers of Survival Motor Neuron (SMN) Protein: Gene Identification via Genome-wide siRNA Screen;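 also: luminescence tracks full-length SMN protein made from the SMN2 reporter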
# Conditions: HEK293T SMN2-luciferase reporter, siRNA knockdown, 72 h; actives lie on both sides
# How it was run: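 HEK293T cells stably carrying an SMN2 promoter/splicing cassette–luciferase reporter were reverse-transfected with 1 pmol siRNA per well (druggable-genome library, 3 siRNAs per gene) and grown 72 h at 37 °C. Luminescence, normalized to negative-control siRNA and log10-transformed, was scored as MAD.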
row,Sequence,median seed-adjusted z-score
1,GCAUGGAUGCUUCUAGACATT against AKAP9,active: -1.22
2,GCGGGUGACCUAUAACAAUTT against TES,inactive: -0.698
3,CGAUAUAUGGAAGAUAGUATT against PTK2,inactive: -0.0806
4,GGCUUUCUGUGGUCGGGUATT against ANGPT4,inactive: 0
5,GGCAGAUUGUGGAUGCGCATT against PML,inactive: -0.415
6,GAUGGAUUCUUUGCGAGAATT against QSOX1,inactive: -0.154
7,GGCAAUGUUGUUUAAUGUATT against THAP3,inactive: 0.269
8,CAUGUACUAUUUUCAGUAUTT against SETD8,active: -1.52
9,CAUCUAAACUUUACAAACATT against CASR,inactive: 0.111
10,GGAUGGACAUGUCAAAUCUTT against RBL1,inactive: -0.0547
11,GCAUGGGAUUUGCAACGAATT against SPTLC2,inactive: 0
12,CCAAAGGAGUCAGCACUGUTT against PLXNA1,inactive: 0
13,GGCUGAUACUAUUUUACGATT against SLITRK6,inactive: -0.136
14,GCUUUGAUCCCGACUGUAATT against CELSR1,inactive: -0.466
15,GGAGUGAUCUCAACCCUAATT against DUOX2,inactive: 0.525
16,GAAUGAACGGAGACCAGAATT against FDPS,inactive: 0.0115
17,GAGAAGGCAUAGAUCUAAATT against SP100,inactive: -0.235
18,GAUCUAUACCUGCUAAUUATT against RAPGEFL1,inactive: 0.21
19,GGACAUCAGUUAAUAAGGUTT against CEBPZ,inactive: 0.301
20,GUGUAAGGAUCAAAAAGAATT against ZNF682,inactive: -0.155
21,GGUCUACGCGUUCUACGAGTT against GPR150,inactive: -0.129
22,GACACUCGCAGGAAAAUUATT against SEC14L3,inactive: 0.308
23,CAGUGUUCCUGAAACCGCUTT against ADAR,inactive: 0.267

row,Sequence,median seed-adjusted z-score
1,GGAUCACCAACAAUCGCAATT against PDE6A,active: 1.25
2,GGAACUCGAUCGUAUCAUUTT against AR,inactive: -0.559
3,GAAGCUUAAUGAAGAUAAATT against FKBP3,inactive: -0.102
4,AGAAGUUUUGUACAGAGAATT against SREBF1,inactive: -0.0469
5,CUGUCUUUCACGUCAAGUATT against NOC4L,inactive: -0.315
6,GGAUGACGAUGCAAACCAUTT against ZNF776,inactive: -0.394
7,GCAGCUCGGUCUCUGACUATT against EDG1,inactive: -0.316
8,GCCUAACUGCUCUUCGUAUTT against ACVR1C,inactive: -0.0005
9,GCUGUACACUUAGCAUGUATT against METAP1,inactive: -0.139
10,CCGAAUCAAUUGAUCAGAATT against FNBP1,inactive: -0.168
11,GGGUUGGUUUGGGCCUGAATT against SOX12,inactive: 0.478
12,GAAUGACCUGGGAGACAAATT against TXNDC5,inactive: -0.753
13,GCUUCUCGAUGGACAGGAATT against HDGF2,inactive: 0
14,CAGCAUCACAAGAUACAUATT against ZNF250,inactive: -0.00985
15,GCACGUCUCUACUUCAUCATT against EXTL2,inactive: -0.0568
16,GCUCCAAGAAGACACCGUATT against SIN3B,inactive: 0.509
17,GCAGUUGAGCUAUCACUAUTT against NFXL1,inactive: 0.118
18,GAAUUUCACAAAGCAAAGATT against TAAR1,inactive: 0.0724
19,GAAGUAAUUGAAAUCAUGATT against HNRNPA1L2,inactive: 0.732
20,GUUCGGCUUUGGGUAUCAATT against PLK3,inactive: -0.116
21,CGAACAGUCCAAGAAAUGUTT against GALNT12,inactive: 0.188
22,CAGUGGAUAUCACAGGCUATT against THAP7,inactive: -0.0317
23,CAACAUCUAUGAUUGGAAUTT against RFXANK,inactive: -0.0665

row,Sequence,median seed-adjusted z-score
1,CAUUCGGAAUAUCAACAAATT against GRLF1,inactive: 0.0307
2,GAAUCUGGGAUGUUAACCATT against IL1RN,inactive: 0.283
3,GGAUAAAGAUGGUGAUAGATT against MIB1,inactive: 0
4,GACCCAUGAUUUACUGCUATT against PCDHB6,inactive: 0
5,CAUCCAAAAUUAGCCCGUUTT against TLR1,inactive: 0
6,CAAUGUUUGUCUGGUCAUATT against ZDHHC2,inactive: 0.133
7,ACAUCUUGCUGCAUCAAGATT against GFOD2,inactive: -0.0447
8,GAGCGACGGCGAAACAAGATT against MEIS3,inactive: 0.207
9,GGAUACAGGAGAAAACGCATT against WWTR1,inactive: -0.579
10,GUAUCAAGAGAUUCACUAATT against USP39,inactive: 0.821
11,CCACCGAUUUGAUCCCAAATT against NAPSA,inactive: -0.336
12,CCUAAUCAAGUACAACAUATT against AP4E1,inactive: 0
13,CAAGCACUAUCAUUGCGAATT against RPA1,inactive: -0.27
14,CAAUGGUAUUGCUACAUUUTT against ATRX,inactive: -0.158
15,CGCGCUUCGUAUUUCAGAATT against MUS81,inactive: 0
16,CAACAAGCGUAAGACCAAATT against SYTL5,inactive: 0.192
17,GACUGUGAUUGACAAGGGATT against ADAL,inactive: 0.145
18,GGACUGGACUUACGAUGAUTT against CHID1,inactive: 0.199
19,GCCGCAACGUGUUUCUGUUTT against CNR1,inactive: 0.0359
20,GCAAGGAAAUCAAAGACGATT against ITLN1,inactive: 0.23
21,CGAUUAUGGAACAACCUAUTT against SORCS1,inactive: -0.123
22,GCAUGUCCAAUGUUCCAUATT against ACAT1,inactive: -0.848
23,GCGGGAUCCUGAACCUGAATT against PLA2G2D,inactive: 0.361

# As a working copy, some entries already given.
row,Sequence,median seed-adjusted z-score
16,CAACAAGCGUAAGACCAAATT against SYTL5,inactive: 0.192
17,GACUGUGAUUGACAAGGGATT against ADAL,inactive: 0.145
18,GGACUGGACUUACGAUGAUTT against CHID1,inactive: 0.199
19,GCCGCAACGUGUUUCUGUUTT against CNR1,inactive: 0.0359
